# Experimental data: PubChem BioAssay AID624297 (National Center for Advancing Translational Sciences (NCATS), 2012)
# In all, about 340,000 compounds went through this assay and about 6,200 (1.8%) were called active. The shares of active, inactive and inconclusive entries below differ from those in the screen. The call rests on the fitted dose curve; in most records, active means well fitted activation curve with a large enough effect; inconclusive means small, poorly fitted or top-dose-only effect; inactive means no such curve, though single readings can be large or run the other way. Where the call is inconclusive, the potency comes from a doubtful curve fit.
# Assay: A quantitative high throughput screen for small molecules that induce DNA re-replication in SW480 colon adenocarcinoma cells. Further: nearly all actives have a fitted effect of over 55% in size. On re-replication activation: % of control where 0% means no effect.
# Conditions: Hoechst DNA content imaging, 48 h; re-replication activation: at 46.1 µM (top of the series)
# Source text: H Molecular Libraries Probe Production Network [MLPCN] NIH Chemical Genomics Center [NCGC] MLPCN Grant: Fast Track K99 CA136555 Assay Provider: Melvin DePamphilis, NICHD, NIH Assay Overview Eukaryotic cells normally restrict genome duplication to once per cell division. When this process is aberrant, DNA re-replication occurs when cells reinitiate DNA replication before the first round of replication is complete. DNA re-replication induces the DNA damage response, arrests cell proliferation, and triggers apoptosis. The cell cycle components cyclin A, Cdt-1, Cdc6 and geminin are critical regulators of this process and their misregulation results in DNA re-replication in normal and cancer cells. To identify compounds that induce re-replication in normal cells, an image-based assay was used to measure DNA content of nuclei, as detected by the fluorescent DNA binding dye, Hoechst. Cell nuclei were imaged by a fluorescence scanning plate imager and compounds that induce DNA re-replication were identified by the increase of nuclei with elevated fluorescence intensity
# For screening, 250 cells in 5 uL/well were dispensed into black clear 1536-well plates (Aurora) using a solenoid-based dispenser. Following transfer of 23 nL compound or DMSO vehicle by a pin tool, the plates were incubated 48 hr at 37 C and 5% CO2. After addition of 1 uL/well Hoescht stain, the plates were incubated 40 min at 37 C, 5% CO2 and total intensity of fluorescent objects (nuclei) were enumerated by an Acumen Explorer Ex3 (TTP LabTech) fluorescence scanning plate imager (405 nm excitation, 500-530 nm emission). Keywords: NIH Roadmap, MLPCN, MLI, MLSMR, qHTS, NCGC, DNA replication, cancer
# Potency means the concentration at half of the fitted maximal effect.
Compound,Potency,re-replication activation
COc1cc2c(c(OC)c1O)-c1ccc(OC)c(=O)cc1C(NC(=O)C(F)(F)F)CC2 (stereo not drawn),active: 0.116 µM,–
CCCOc1ccccc1NP(=O)(Oc1ccccc1)Oc1ccccc1,–,inactive: -1.43%
O=C1NC(=O)N(c2ccc(F)cc2)C(=O)/C1=C/c1ccsc1,"inconclusive: 10.3 µM [activator, partial curve, poor fit]",–
COc1cccc(C2CC3C(=O)C=CC2N3Cc2ccccc2)c1 (stereo not drawn),"inconclusive: 32.6 µM [activator, partial curve, poor fit]",–
Cc1nn(CCC#N)c2c1P(=S)(N1CCCC1)OC(c1ccc(F)cc1)=N2 (stereo not drawn),"inconclusive: 29.1 µM [activator, single point]",–
COc1ccc(S(=O)(=O)N2c3ccc(F)cc3CCC2C)cc1 (stereo not drawn),"inconclusive: 4.11 µM [activator, partial curve, poor fit]",–
CC(C)CNC(=O)c1c(N)n(Cc2ccc3c(c2)OCO3)c2nc3ccccc3nc12,active: 2.59 µM,–
CN1C(=O)C(=Cc2ccccc2OCc2ccccc2Cl)C(=O)N(C)C1=O,"inconclusive: 20.6 µM [activator, single point]",–
Cc1cc(OC(=O)c2ccco2)c2c3c(c(=O)oc2c1)CCCC3,–,inactive: -5.43%
C#C[C@]1(O)CCC2C3C(=O)C=C4C(Cl)=CCC[C@]4(C)C3CC[C@@]21C (stereo partly drawn),"inconclusive: 18.4 µM [activator, single point]",–
Cc1ccc(N)cc1N,–,inactive: 0.783%
COc1ccccc1-n1c(/C=C/c2ccc(O)cc2)nc2ccccc2c1=O,"inconclusive: 29.1 µM [activator, single point]",–
O=c1c2ccccc2nc(-c2ccccc2)n1-c1ccccn1,–,inactive: -3.63%
CCOC(=O)c1c(N)n(CCCOC(=O)c2ccco2)c2nc3ccccc3nc12,"inconclusive: 3.66 µM [activator, single point]",–
O=[N+]([O-])c1oc2ccc3ccccc3c2c1CCO,"inconclusive: 29.1 µM [activator, single point]",–
Cc1cc(Br)c(NC(=O)CN2CC=C(c3ccccc3)CC2)c(Br)c1,"inconclusive: 29.1 µM [activator, single point]",–
O=C(/C=C/c1cccs1)c1cc(Cl)ccc1OC(=O)N1CCOCC1,"inconclusive: 17.8 µM [activator, single point]",–
Cc1c(C(=O)O)cc(-c2ccccc2)n1Cc1ccccc1,–,inactive: -3.42%
Cc1ccc(C2(O)CCN3CCCCC32)cc1 (stereo not drawn),"inconclusive: 3.26 µM [activator, partial curve, poor fit]",–
Oc1cc[c]([Hg][Cl])cc1,"inconclusive: 0.841 µM [activator, full curve]",–
O=c1[nH]c(=S)[nH]c(O)c1/C=C1\C=Nc2ccccc21,"inconclusive: 25.9 µM [activator, single point]",–

Compound,Potency,re-replication activation
CC(=O)N1Cc2cnnn2-c2ccccc2C1(C#N)Cc1ccccc1 (stereo not drawn),"inconclusive: 1.16 µM [activator, single point]",–
COc1ccc(F)cc1CN1CCN(C(=O)CCC(=O)Nc2nnc(CC(C)C)s2)CC1,"inconclusive: 1.84 µM [activator, single point]",–
O=c1c2ccccc2nc(/C=C/c2ccc(F)cc2)n1-c1ccccc1O,"inconclusive: 29.1 µM [activator, single point]",–
Cc1cc(=O)oc2c1c(C)nn2-c1nn[nH]n1,"inconclusive: 18.4 µM [activator, partial curve, poor fit]",–
C[C@H]1C[C@@H](C)C(=O)[C@@H]([C@H](O)CC2CC(=O)NC(=O)C2)C1,"inconclusive: 20.6 µM [activator, partial curve, poor fit]",–
C[C@@H]1O[C@@H](O[C@H]2C[C@@H](O)[C@]3(CO)[C@H]4[C@H](O)C[C@]5(C)[C@@H](C6COC(=O)C6)CC[C@]5(O)[C@@H]4CC[C@]3(O)C2)[C@H](O)[C@H](O)[C@H]1O (stereo partly drawn),active: 5.17 µM,–
COc1ccc(/C=C2/C(=O)NC(=S)N(C3CC3)C2=O)cc1CN1C(=O)c2ccccc2C1=O,"inconclusive: 29.1 µM [activator, partial curve, poor fit]",–
CC(C)n1c(O)c(C=NCc2cccnc2)c(=O)[nH]c1=S,"inconclusive: 6.51 µM [activator, single point]",–
O=[N+]([O-])c1cccc(NP(=O)(N2CC2)N2CC2)c1,"inconclusive: 23.1 µM [activator, single point]",–
O=C(c1ccccc1)N1CCN(CCc2ccccc2)CC1,"inconclusive: 0.82 µM [activator, full curve, poor fit]",–
CC(=O)OC(C)(C)/C=C/C(=O)C(C)(O)C1C(O)CC2(C)C3CC=C4C(CC(O)C(=O)C4(C)C)C3(C)C(=O)CC12C (stereo not drawn),active: 0.0116 µM,–
CN(C)c1ccc(/C=C/c2cc[n+](C)c3ccccc23)cc1,"inconclusive: 20.6 µM [activator, partial curve, poor fit]",–
CC(=O)OC1CCC2(C)C(CCC3C4CC(N5CC5)C(C(C)=O)C4(C)CC(=O)C32)C1 (stereo not drawn),"inconclusive: 23.1 µM [activator, single point]",–
CN1C2CCC1/C(=C/c1ccccn1)C(=O)/C2=C\c1ccccn1,"inconclusive: 0.461 µM [activator, full curve, poor fit]",–
O=C1NC(=O)C(=Cc2cccs2)C(=O)N1,"inconclusive: 29.1 µM [activator, single point]",–
C[C@H]1CC[C@@H]2[C@@H](C)[C@H]3[C@H](C[C@H]4[C@@H]5CC=C6CC(O[C@@H]7O[C@H](CO)[C@H](O)[C@H](O[C@@H]8O[C@H](CO)[C@@H](O)[C@H](O)[C@H]8O)[C@H]7O[C@H]7O[C@@H](C)[C@H](O)[C@@H](O)[C@H]7O)CC[C@]6(C)[C@H]5CC[C@]34C)N2C1 (stereo partly drawn),"inconclusive: 29.9 µM [activator, partial curve, poor fit]",–
CCCCOCCCn1c(N)c(C(=O)OCCOC)c2nc3ccccc3nc21,"inconclusive: 32.6 µM [activator, partial curve, poor fit]",–
CN(C)P(=O)(C(Cl)=C(N1CCCCC1)N1CCCCC1)N(C)C,–,inactive: -1.89%
[Hg+][c]1ccccc1,active: 10.6 µM,–
Cc1[nH]c2c(Cl)cccc2c1CCN,"inconclusive: 23.1 µM [activator, single point]",–
COC/C=C1\CN2C3C[C@@H]1[C@H]1COC4=Nc5cc(OC)c(OC)c(OC)c5[C@@]43C[C@@H]12,"inconclusive: 5.8 µM [activator, full curve, poor fit]",–

# A draw from above in order of molar mass, falling:
Compound,Potency,re-replication activation
C[C@H]1CC[C@@H]2[C@@H](C)[C@H]3[C@H](C[C@H]4[C@@H]5CC=C6CC(O[C@@H]7O[C@H](CO)[C@H](O)[C@H](O[C@@H]8O[C@H](CO)[C@@H](O)[C@H](O)[C@H]8O)[C@H]7O[C@H]7O[C@@H](C)[C@H](O)[C@@H](O)[C@H]7O)CC[C@]6(C)[C@H]5CC[C@]34C)N2C1 (stereo partly drawn),"inconclusive: 29.9 µM [activator, partial curve, poor fit]",–
CCCCOCCCn1c(N)c(C(=O)OCCOC)c2nc3ccccc3nc21,"inconclusive: 32.6 µM [activator, partial curve, poor fit]",–
CC(=O)N1Cc2cnnn2-c2ccccc2C1(C#N)Cc1ccccc1 (stereo not drawn),"inconclusive: 1.16 µM [activator, single point]",–

# More results:

Compound,Potency,re-replication activation
Cc1ccc(N=CN(C)C=Nc2ccc(C)cc2C)c(C)c1,"inconclusive: 33.5 µM [activator, partial curve, poor fit]",–
Oc1ccc(C[C@H]2NCCc3cc(O)c(O)cc32)cc1O,"inconclusive: 29.1 µM [activator, single point]",–
O=C1C2C3CCC(O3)C2C(=O)N1c1cccc(F)c1 (stereo not drawn),"inconclusive: 1.03 µM [activator, partial curve]",–
COc1ccccc1N(CC(=O)NC1CCCC1)C(=O)c1cnn(C(C)C)c1,–,inactive: -3.56%
O=C(Cn1ncc2ccsc2c1=O)N1CCC2(CC1)OCCO2,–,inactive: 1.73%
COc1ccc(CN2CCCC(C(=O)c3ccccc3SC)C2)cc1O (stereo not drawn),"inconclusive: 2.59 µM [activator, full curve, poor fit]",–
COc1ccc(N2C(=O)/C(=C/c3cccs3)C(=O)NC2=S)cc1,"inconclusive: 4.11 µM [activator, single point]",–
O=C(Nc1cccc(Cl)c1)OC1CN2CCC1CC2 (stereo not drawn),"inconclusive: 13 µM [activator, single point]",–
C=C1C(=O)O[C@@H]2C[C@@H](C)[C@@H]3C4OC4C(=O)[C@@]3(C)[C@@H](O)[C@H]12 (stereo partly drawn),"inconclusive: 1.84 µM [activator, partial curve]",–
COC(=O)C1=C(c2ccccc2OCc2ccccc2)C[C@@H]2CC[C@H]1N2C(=O)NCc1cccc(C(F)(F)F)c1,"inconclusive: 18.4 µM [activator, partial curve, poor fit]",–
COc1ccc(Cn2c(O)c(C=NCCN3CCOCC3)c(=O)[nH]c2=O)cc1,–,inactive: 9.65%
CCc1ccccc1N1C(=O)/C(=C/c2ccc(N3CCN(C)CC3)o2)C(=O)NC1=S,–,inactive: -3.25%
C=C1[C@H]2C[C@H]3[C@H]4N5C[C@]6(C)CCC[C@]47[C@H]([C@H]2O)[C@]3(C[C@]5(O)[C@H]67)[C@@H]1O,"inconclusive: 1.3 µM [activator, full curve, poor fit]",–
COc1cc(CN2CC(C)OC(C)C2)cc(OC)c1 (stereo not drawn),"inconclusive: 6.51 µM [activator, partial curve, poor fit]",–
Cc1cc(NC(=O)CCl)no1,"inconclusive: 29.1 µM [activator, single point]",–
O=C(O)c1ccc(/C=C/c2nc3ccccc3c(=O)n2-c2ccc(Br)cc2)cc1,"inconclusive: 20.6 µM [activator, single point]",–
Cc1ccc(NC(=O)c2snnc2C)cc1Cl,–,inactive: 1.74%
O=Cc1cn(Cc2ccc([N+](=O)[O-])cc2)c2ccccc12,"inconclusive: 29.1 µM [activator, partial curve, poor fit]",–
CCOC(=O)Cn1cc([N+](=O)[O-])nc1[N+](=O)[O-],active: 23.1 µM,–
COc1cc(CN2CCCC(CCC(=O)NCc3ccc(C)o3)C2)cc2c1OCO2 (stereo not drawn),"inconclusive: 29.1 µM [activator, single point]",–

# Entries listed so far containing a carbonyl joined to an NH by a bond outside any ring (10):
Compound,Potency,re-replication activation
COc1cc2c(c(OC)c1O)-c1ccc(OC)c(=O)cc1C(NC(=O)C(F)(F)F)CC2 (stereo not drawn),active: 0.116 µM,–
CC(C)CNC(=O)c1c(N)n(Cc2ccc3c(c2)OCO3)c2nc3ccccc3nc12,active: 2.59 µM,–
Cc1cc(Br)c(NC(=O)CN2CC=C(c3ccccc3)CC2)c(Br)c1,"inconclusive: 29.1 µM [activator, single point]",–
COc1ccc(F)cc1CN1CCN(C(=O)CCC(=O)Nc2nnc(CC(C)C)s2)CC1,"inconclusive: 1.84 µM [activator, single point]",–
COc1ccccc1N(CC(=O)NC1CCCC1)C(=O)c1cnn(C(C)C)c1,–,inactive: -3.56%
O=C(Nc1cccc(Cl)c1)OC1CN2CCC1CC2 (stereo not drawn),"inconclusive: 13 µM [activator, single point]",–
COC(=O)C1=C(c2ccccc2OCc2ccccc2)C[C@@H]2CC[C@H]1N2C(=O)NCc1cccc(C(F)(F)F)c1,"inconclusive: 18.4 µM [activator, partial curve, poor fit]",–
Cc1cc(NC(=O)CCl)no1,"inconclusive: 29.1 µM [activator, single point]",–
Cc1ccc(NC(=O)c2snnc2C)cc1Cl,–,inactive: 1.74%
COc1cc(CN2CCCC(CCC(=O)NCc3ccc(C)o3)C2)cc2c1OCO2 (stereo not drawn),"inconclusive: 29.1 µM [activator, single point]",–
